By cell viability is commonly meant a read-out of living cells in per cent, often relative to untreated cells.

Structures are written as SMILES. Among all 3,000 compounds or so, about 45 (2%) showed an effect of 50% or more. This is one part of the list.

This assay deals with MOLM1 and UCSD/AML1 (averaged). Nature of the assay: cell viability relative to DMSO control (POC); higher = less growth inhibition. The conditions noted are these: 1 µM; 72 h. As to the method: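 Primary viability screen in the 3q26 EVI1-high AML cell lines MOLM1 and UCSD/AML1, compounds at 1 uM for 72 h. ATP CellTiter-Glo read-out given as percent viable over DMSO control (POC), averaged over duplicates. This mapping covers the TimTec NDL-3000 natural derivative library, whose compounds are identified by TimTec catalogue codes (ST...).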
`CC(=O)OC1CCC2(C)C(CCC3(C)C2C(=O)C=C2C4CC(C)(C(=O)Nc5ccccc5)CCC4(C)CCC23C)C1(C)C` (centres undefined): the cell viability was determined as 99.2%.
Then `CN(C)c1cccc2c(S(=O)(=O)NC(CCCN=C(N)N)C(=O)O)cccc12` (centres undefined), with 103%.
Take `COC(=O)C1=C(C(=O)OC)N(c2ccc(F)cc2)C(N)=C(C#N)C1c1ccc(O)c(OC)c1` (centres undefined): the cell viability came out at 107%.
As for `O=C(O)[C@@H](O)c1ccccc1`, the cell viability was found to be 96.9%.
The value for `COc1c2c(c(Cl)c(-c3cc(CO)on3)c1OC)OCO2` was 97.2%; that for `COc1ccc(C(=O)n2nc(-c3ccccc3)c(Br)c2N)cc1OC` was 98%; that for `Cc1cc2nc3[nH]c(=O)[nH]c(=O)c3nc2cc1C` was 94.8%.
In the case of `O=C(O)CNC(=O)c1ccccc1F`, the cell viability came out at 104%.
The value for `O=C1CC(c2ccccc2Cl)CC2=C1C(c1ccc(O)cc1)Nc1ccccc1N2` (centres undefined) was 112%; that for `COc1ccccc1-c1c(C(F)(F)F)oc2c(CN3CC(C)OC(C)C3)c(O)ccc2c1=O` (centres undefined) was 93.5%.
For `COC(=O)c1ccc2[nH]c(C)c(CN3CCc4ccccc4C3)c(=O)c2c1`, the cell viability turned out to be 103%.
Consider `COc1cccc(NC(=O)Cn2c(=O)cc(C(=O)N3CCc4ccccc4C3)c3ccccc32)c1`, for which the cell viability came to 104%.
As to `COc1ccc(C(=O)CCNc2ccc3c(c2)n(C)c(=O)n3C)cc1OC`, the cell viability turned out to be 105%.
Then `COc1ccc(C2C(C(=O)OCCOc3ccccc3)=C(C)NC3=C2C(=O)CC(C)(C)C3)cc1Br` (centres undefined), with 99%; and `COc1ccc(C(=O)NC2CCCCCC2)cc1OC`, with 105%; and `CC(=O)OC1CCC2(C)C(CCC3(C)C2C(=O)C=C2C4CC(C)(C(=O)Nc5ccc([N+](=O)[O-])cc5)CCC4(C)CCC23C)C1(C)C` (centres undefined), with 79.3%.
Turning to `COc1ccc2[nH]c(C)c(CCNC(=O)c3ccc(OC)c(OC)c3)c2c1`, the cell viability turned out to be 93.6%.
In the case of `O=C(Cn1cnc2ccccc2c1=O)c1ccc2c(c1)OCCO2`, the cell viability was found to be 106%.
On to `O=C(NCCCCCCNC(=O)/C(=C\c1ccccc1)NC(=O)c1ccccc1)/C(=C/c1ccccc1)NC(=O)c1ccccc1`, for which the cell viability came out at 108%.
For `COc1cccc(CNC(=O)CSc2nc3ccccc3c(=O)[nH]2)c1`, the cell viability was determined as 103%.
Take `CC(C)(C)OC(=O)NC(CCCCNC(=O)OCc1ccccc1)C(=O)O` (centres undefined): the cell viability was found to be 96.3%.
For `CCC(=O)NC(N1CCCCC1c1cccnc1)(C(F)(F)F)C(F)(F)F` (centres undefined), the cell viability worked out at 98.7%.
Take `CCOC(=O)c1ccccc1NC(=O)c1cc(OC)c(OC)c(OC)c1`: the cell viability was determined as 68.4%.
Regarding `Cc1cc(=O)[nH]c2ccc(S(=O)(=O)N(C)CC34CC5CC(CC(C5)C3)C4)cc12`, the cell viability turned out to be 102%.
The value for `CN1CCc2c(c3ccccc3n2Cc2ccccc2)C1` was 92.9%; that for `CCCNC(=O)CN1CCc2c([nH]c3ccccc23)C1c1ccc(OC)cc1` (centres undefined) was 84.8%; that for `CCCc1cc(=O)[nH]c(SCc2ccc(C(=O)Nc3ccc(C)c(Cl)c3)cc2)n1` was 94.4%.
Then `COc1ccc2[nH]c(=O)c(CNCc3ccccc3)cc2c1`, with 105%; and `COc1ccc(C2C3CCCCC3(O)CCN2C(=O)C2c3ccccc3Oc3ccccc32)c(OC)c1` (centres undefined), with 88.4%; and `Cc1ccc(OCCOCn2cc(Br)c(=O)[nH]c2=O)cc1`, with 99.7%.
As for `N=c1cc(C(=O)Nc2ccc(-c3ccccc3)cc2)c2cc(Cl)ccc2o1`, the cell viability came to 106%.
As to `CC(=O)OC1CCC2(C)C(CCC3(C)C2CCC2C4C5OCC4(CCC5(C)C)CCC23C)C1(C)C` (centres undefined), the cell viability was found to be 95.8%.
In the case of `Cn1c(=O)c2c(nc3n(Cc4ccccc4)c(C45CC6CC(CC(C6)C4)C5)cn23)n(C)c1=O`, the cell viability came to 101%.
Then `Cn1c(=O)c2cc(S(=O)(=O)N3CCc4ccccc4C3)ccc2n(C)c1=O`, with 102%.
For the compound `COc1ccc(C2NC(C(=O)O)Cc3c2[nH]c2ccccc32)cc1COc1ccc(F)c(Cl)c1` (centres undefined), the cell viability was 86.8%.
In the case of `O=C1OC([C@@H](O)[C@@H](O)CO)[C@H](O)[C@@H]1O` (some centres undefined), the cell viability came to 93%.
Regarding `C[C@@H]1O[C@H](O)[C@@H](O)[C@H](O)[C@@H]1O`, the cell viability is 98.1%.
With `CCOC(=O)CCC(=O)Nc1ccccc1C(N)=O`, the cell viability amounted to 101%.
Take `CCCCCCOC(=O)c1ccccc1NC(=O)c1c(O)c2ccccc2[nH]c1=O`: the cell viability is 97.5%.
On to `O=C(O)C1CCCN1c1nc(-c2ccc(Cl)c(Cl)c2)cc(C(F)(F)F)n1` (centres undefined), for which the cell viability is 99.8%.
As for `O=C(O)c1ccc(Nc2nc(-c3ccc(Cl)cc3)nc3ccccc23)cc1`, the cell viability turned out to be 93.6%.
Regarding `COCCOC(=O)c1c(C)n(CCC2=CCCCC2)c2c1cc(O)c1ccccc12`, the cell viability is 85.4%.
As to `Cc1ccc(-n2nc(C(=O)NCC(=O)O)nc2-c2ccccc2)cc1`, the cell viability was 106%.
Then `CCc1ccc(-n2c(C)c(C(=O)OCCOC)c3cc(O)c4ccccc4c32)cc1`, with 103%; and `COc1ccc(CCNC(=O)c2ccccc2NC(=O)c2ccc(OC)c(OC)c2)cc1OC`, with 87.9%; and `CCOC(=O)/C=C1\NC(C)(C)Cc2cc3c(cc21)OCCO3`, with 89.5%.
Turning to `CCC(C)C(NC(=O)CCC(=O)O)C(=O)O` (centres undefined), the cell viability was determined as 100%.
The value for `Cc1ccc2c(C)c(-c3ccc(Cl)cc3)c(=O)oc2c1` was 106%.
With `CCC1(C)OC(=O)N2CCc3ccccc3C21C` (centres undefined), the cell viability stood at 87%.
Turning to `OC1(C#CCN2CCCCC2c2cccnc2)CCCCCC1` (centres undefined), the cell viability was 97%.
For the compound `CC(Nc1n[nH]c(=O)[nH]c1=O)C(=O)N/N=C/c1ccncc1` (centres undefined), the cell viability is 94.8%.
For the compound `CSc1ccc(S(=O)(=O)N2CCc3ccccc3C2)cc1`, the cell viability turned out to be 94.1%.
The value for `CCOC(=O)/C(C#N)=C\c1ccc(/C=C(\C#N)C(=O)OCC)cc1` was 98.7%; that for `Cc1ccc(C(=O)N2N=C(c3c(-c4ccccc4)c4cc(Br)ccc4[nH]c3=O)CC2c2ccccc2)cc1` (centres undefined) was 100%; that for `CSc1cccc(NC(=O)Cn2c(=O)cc(C(=O)N3CCCCC3)c3ccccc32)c1` was 96.9%.
In the case of `COC(=O)c1ccccc1NC(=O)c1cccc(OC)c1`, the cell viability worked out at 101%.
The value for `Cc1cc(S(=O)(=O)N2CCOCC2)c2[nH]c(=O)cc(C)c2c1` was 101%; that for `CCn1c(SCC(=O)Nc2cccc(C)c2C)nc2c(=O)[nH]cnc21` was 109%.
As to `CC(C)CC(NS(=O)(=O)c1c(C(C)C)cc(C(C)C)cc1C(C)C)C(=O)O` (centres undefined), the cell viability worked out at 90.6%.
For `O=[N+]([O-])C1=Cc2ccccc2OC1c1ccc2c(c1)OCO2` (centres undefined), the cell viability was 2.67%.
The value for `CCCNC(=O)c1cc(=O)n(CC(=O)Nc2ccc(C)cc2)c2ccccc12` was 84.1%; that for `Cc1[nH]c2ccccc2c1CCNC(=O)c1ccc(Cl)c(Cl)c1` was 105%.
As for `CC(C)OC(=O)C1=C(N)Oc2c(oc(CO)cc2=O)C1c1ccccc1C(F)(F)F` (centres undefined), the cell viability worked out at 87.8%.
For the compound `CCN(CC)c1ccc(C2C3CCCCC3(O)CCN2C(=O)c2ccccc2OC)cc1` (centres undefined), the cell viability is 98.7%.
